Measurements published in US20250066727A1, “COMPOSITIONS AND METHODS FOR CULTURING STEM CELLS” (Beijing TheraXyte BioScience Co. Ltd., priority 2021, published 2025).
Some of these results come from one statement about several compounds together.

Test system: adult KSCs
Experiment: Growth supplement function assay (EdU / p63)
Assay type: cell-based
Conditions: added to KSFX-free basal medium, 24 hours
Protocol: For the EdU (5-ethynyl-2′-deoxyuridine) assay, 5×10^3 cells were plated to a well of the 96-well cell culture plate and cultured for overnight. On the second day, the cells were treated with 10 μM EdU for 3 hours at 37° C. The cells were washed with PBS and then fixed with 4% formaldehyde for 30 min at RT. The cells were washed with PBS and then permeabilized with 0.1% Triton for 20 min at RT. The cells were washed with PBS and then labeled with freshly prepared EdU labeling buffer containing 5 μM of Sulfo-Cyanine 3 azide, 4 mM of Copper(II) sulfate pentahydrate, 2 mg/mL of Sodium L-ascorbate in PBS for 30 min at RT. The cells were washed with PBS and labeled with Hoechst if needed. Finally, the plate was scanned and analyzed by Celllnsight CX5 HCA reader.
Cells were washed with PBS once and then fixed with 4% formaldehyde for 30 min at room temperature (RT). The cells were washed with PBS and then permeabilized with 0.1% Triton for 20 min at RT The cells were washed with PBS and then blocked with 3% BSA for 1 hr at RT. Then the cells were incubated with primary antibodies such as anti-KRT14, or anti-p63 overnight at 4° C. The cells were washed with PBS and labeled with the secondary antibody such as Goat anti-Mouse Alexa Fluor 488, Goat anti-Rabbit Alexa Fluor 647, and Hoechst if needed. Finally, the plate was scanned and analyzed by CellInsight CX5 HCA reader. […]

B1: KGF: recombinant human keratinocyte growth factor (protein, UniProt P21781 32-194, looked up)
Fibroblast growth factor 7: CNDMTPEQMATNVNCSSPERHTRSYDYMEGGDIRVRRLFCRTQWYLRIDKRGKVKGTQEMKNNYNIMEIRTVAVGIVAIKGVESEFYLAMNKEGKLYAKKECNEDCNFKELILENHYNTYASAKWTHNGGEMFVALNQKGIPVRGKKTKKEQKTAHFLPMAIT
B1 was tested, and the “concentration that increases the cell number (p63 count)” value was “at least 10 ng/mL”.
